# Measurements reported in the supplement of paper PMC8960247.
# Where a name gives a salt, the structure may show the parent alone. The data scatter; read single values as rough.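 Immortalized human renal angiomyolipoma cells with an empty vector keep TSC2 lost. A luminescent ATP assay measured viability, normalized per plate to vehicle-treated wells, in low-serum medium where TSC2-rescued cells fail to grow.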
# Test system: 621-102 (TSC2-deficient)
# Assay: relative viability vs DMSO (fraction); higher = less cytotoxic
# Details: serum: 0.1% FBS, 72 h
Structure (SMILES),relative viability (0.0128 nM),relative viability (0.064 nM),relative viability (0.32 nM),relative viability (1.6 nM),relative viability (8 nM),relative viability (40 nM),relative viability (200 nM),relative viability (1000 nM),relative viability (5000 nM)
C[C@@H]1CCN(C(=O)CC#N)C[C@@H]1N(C)c1ncnc2[nH]ccc12,1.07,1.04,0.9,0.908,0.931,0.908,0.22,0.0694,0.0504
Cc1cnc(-c2cnc(NCCNc3ccc(C#N)cn3)nc2-c2ccc(Cl)cc2Cl)[nH]1,1.03,0.999,0.999,1.04,1.03,0.911,0.892,0.0736,0.0127
COc1cccc(Nc2c(C(N)=O)cnc3c(C)cc(S(=O)(=O)c4cccc(C(=O)N(C)C)c4)cc23)c1,0.738,0.773,0.79,0.819,0.787,0.706,0.765,0.82,0.827
COc1ccc(-c2oc3c(CC=C(C)C)c(O[C@@H]4O[C@H](CO)[C@@H](O)[C@H](O)[C@H]4O)cc(O)c3c(=O)c2O[C@@H]2O[C@@H](C)[C@H](O)[C@@H](O)[C@H]2O)cc1 [Icariin],0.591,0.799,0.636,0.598,0.636,0.557,0.622,0.567,0.672
CCN(CC)CCOc1ccc(C(=C(Cl)c2ccccc2)c2ccccc2)cc1 [Clomifene citrate],0.757,0.801,0.667,0.741,0.713,0.7,0.447,0.0173,0.00963
Cn1c(CNc2ccc(C(=N)N)cc2)nc2cc(C(=O)N(CCC(=O)O)c3ccccn3)ccc21 [BIBR 953],0.814,0.822,0.724,0.798,0.795,0.846,0.72,0.598,0.663
CN(C)C(=O)C(CCN1CCC(O)(c2ccc(Cl)cc2)CC1)(c1ccccc1)c1ccccc1 [Loperamide HCl],0.83,0.776,0.782,0.799,0.793,0.779,0.749,0.623,0.414
Nc1ncnc2c1c(-c1cccc(OCc3ccccc3)c1)cn2C1CC(CN2CCCC2)C1 (configuration not stated) [NVP-ADW742],0.922,0.947,0.34,0.845,0.745,0.712,0.0356,0.0216,0.024
O=c1oc2cc(O)ccc2s1 [Tioxolone],0.878,0.953,0.873,0.906,0.768,0.715,0.713,0.735,0.777
O=C(Cc1ccc(-c2ccc(OCCN3CCOCC3)cc2)cn1)NCc1ccccc1 [KX2-391],0.584,0.696,0.569,0.507,0.446,0.225,0.0636,0.0352,0.0423
CC1(C)CNc2cc(NC(=O)c3cccnc3NCc3ccncc3)ccc21 [Motesanib Diphosphate],0.918,0.874,0.922,0.835,0.807,0.702,0.792,0.675,0.648
Cc1nc(=O)c2cc(CN(C)c3ccc(C(=O)N[C@@H](CCC(=O)O)C(=O)O)s3)ccc2[nH]1 [Raltitrexed],0.974,0.905,0.866,1.11,0.922,0.958,0.906,0.867,0.727
COc1ccccc1N1CCN(CCN2C(=O)CC3(CCCC3)CC2=O)CC1 [BMY 7378],0.089,0.341,0.722,0.77,0.624,0.652,0.851,1.13,0.588
N#Cc1c(O)c2c(-c3ccc(-c4ccccc4O)cc3)csc2[nH]c1=O,0.868,0.823,0.809,0.8,0.843,0.822,0.809,0.802,0.749
COc1cc(Nc2c(C#N)cnc3cc(OCCCN4CCN(C)CC4)c(OC)cc23)c(Cl)cc1Cl [Bosutinib (SKI-606)],0.624,0.734,0.817,0.779,0.842,0.876,0.915,0.0137,0.0117
CN(C)CCCN1c2ccccc2CCc2ccc(Cl)cc21 [Clomipramine HCl],0.807,0.744,0.805,0.856,0.81,0.716,0.784,0.672,0.521
Cn1cnc2c(F)c(Nc3ccc(Br)cc3Cl)c(C(=O)NOCCO)cc21 [AZD6244],1.01,1.02,1.09,0.91,0.943,0.842,0.683,0.446,0.0096
N#CC(=C(/N)Sc1ccccc1N)/C(C#N)=C(\N)Sc1ccccc1N [U0126-EtOH],0.829,0.811,0.789,0.842,0.756,0.686,0.76,0.706,0.828

# A different layout for some results above:
Structure (SMILES)	relative viability (0.0128 nM)	relative viability (0.064 nM)	relative viability (0.32 nM)	relative viability (1.6 nM)	relative viability (8 nM)	relative viability (40 nM)	relative viability (200 nM)	relative viability (1000 nM)	relative viability (5000 nM)
COc1cc(Nc2c(C#N)cnc3cc(OCCCN4CCN(C)CC4)c(OC)cc23)c(Cl)cc1Cl [Bosutinib (SKI-606)]	0.624	0.734	0.817	0.779	0.842	0.876	0.915	0.0137	0.0117
CN(C)CCCN1c2ccccc2CCc2ccc(Cl)cc21 [Clomipramine HCl]	0.807	0.744	0.805	0.856	0.81	0.716	0.784	0.672	0.521
